Source: patent US6015877A (President and Fellows of Harvard College, priority 1996, dated 2000)

Test: general procedure: solution-phase peptide synthesis; 1-ethyl-3-(3-dimethylaminopropyl)carbodiimide hydrochloride / 1-hydroxybenzotria

With “(4S)-N-Boc-4-amino-2,2-difluoro-3-hydroxy-5-(S-all-trans-farnesyl)-1-(L-Val-L-Ile-L-Met)pentanoic Amide” the step yield (late stage modification step) was 40%.
With “(4S)-N-Boc-4-amino-2,2-difluoro-3-hydroxy-5-(S-all-trans-farnesyl)-1-(methyl L-Val-L-Ile-L-Met)pentanoic Amide” the step yield (coupling step) was 19%.
With “(3S,4S)-N-Boc-4-amino-3-hydroxy-5-(S-all-trans-farnesyl)-1-(methyl L-Val-L-Ile-L-Met)pentanoic Amide” the step yield (coupling step) was 70%.
